Measured values reported in paper PMC6312201.

What was measured:
[1] = target: T1, tyrosinase from Streptomyces castaneoglobisporus HUT6202 (Streptomyces castaneoglobisporus HUT6202) (UniProt Q83WS2); experiment: crystal structure; crystals of the copper-free complex grown by sitting-drop vapor diffusion (25% PEG3350, 0.2 M NaNO3, 0.1 M Na-HEPES pH 6.5), soaked in CuSO4 and NH2OH at 25 °C (anaerobic or aerobic, 10 min to 24 h), cryo-trapped; synchrotron data, 1.16-1.70 Å; both purified
T1 sequence: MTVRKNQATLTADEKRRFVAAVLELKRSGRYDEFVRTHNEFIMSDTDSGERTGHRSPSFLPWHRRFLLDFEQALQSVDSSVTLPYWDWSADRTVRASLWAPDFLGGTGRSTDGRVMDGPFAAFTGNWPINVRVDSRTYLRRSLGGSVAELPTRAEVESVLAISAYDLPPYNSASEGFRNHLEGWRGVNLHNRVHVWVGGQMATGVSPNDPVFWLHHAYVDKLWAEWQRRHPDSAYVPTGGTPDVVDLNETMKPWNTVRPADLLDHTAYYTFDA

[2] = target: T2, H63F-mutated tyrosinase, in which the His63 residue is replaced with phenylalanine (Streptomyces castaneoglobisporus HUT6202) (UniProt Q83WS2); experiment: as above
T2 sequence: T1 sequence with H63F

binding [1] | binding [2] | Substance
binds |  | caddie Y98F mutant, in which the Tyr98 residue is replaced with phenylalanine (Streptomyces castaneoglobisporus HUT6202)
binds | binds | caddie protein (orf378 gene product) from Streptomyces castaneoglobisporus HUT6202

Where a chain is given by its changes, count along the chain named. No constants are given. Whether binding was seen depends on the method and setting. A result given as binding can be weak or reduced; the word gives no strength. Where a sequence is shown, tags or fusion partners need not be part of it.
